The data set is described as follows: Fmoc solid-phase peptide synthesis; Fmoc-Rink Amide Resin; BOP/HOBt/DIEA; DIC. The conditions noted are these: whole synthesis, 214 nm, scale 0.26 mmol.

For the substance “Tyr-c[Cys-His-DPhe-Arg-Trp-Asn-Ala-Phe-Cys]-Tyr”, the “final HPLC purity” value was >98%.

Source of the values: patent US8058240B2 (University of Florida Research Foundation, Inc., priority 2006, dated 2011).
